In publication PMC12596378:
No constants are given. Whether binding was seen depends on the method and setting. Binding seen in cells or lysates may run through a third protein. Some results given as binding are weak or reduced against the parent protein; the word gives no strength. Where a sequence is shown, tags or fusion partners need not be part of it.

By UniProt entry, the sequences of proteins in these tests, tags left out.
UniProt P07305: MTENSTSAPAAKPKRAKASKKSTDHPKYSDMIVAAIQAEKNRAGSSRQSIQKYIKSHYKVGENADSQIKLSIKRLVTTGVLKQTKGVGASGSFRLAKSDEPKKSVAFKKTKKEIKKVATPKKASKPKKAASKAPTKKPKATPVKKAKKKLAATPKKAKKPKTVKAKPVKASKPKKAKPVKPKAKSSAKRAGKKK

Biological target: histone H1.0, endogenous in A549 cells (human (endogenous in A549)) (UniProt P07305)
Assay: co-IP; A549 cell lysates; HMGB1, NS1 or H1.0 antibody on SureBeads Protein G, 2 h room temperature; cells RSV-infected 24 h, or NS1/control lentivirus 72 h, or RSV 6 h then siNS1/siCON 24 h

B1: NS1 expressed from the NS1 lentivirus (LV5-NS1-GFP) in A549 cells (protein, UniProt P0DOE9 1-139)
chain: MGSNSLSMIKVRLQNLFDNDEVALLKITCYTDKLIHLTNALAKAVIHTIKLNGIVFVHVITSSDICPNNNIVVKSNFTTMPVLQNGGYIWEMMELTHCSQPNGLLDDNCEIKFSKKLSDSTMTNYMNQLSELLGFDLNP
binding: binds
